Assay results reported in article PMC4747350.
Results are given in words; binding and its absence hold for the method and conditions named. In cells and extracts the contact can be indirect. Some results given as binding are weak or reduced against the parent protein; the word gives no strength.

Chains of the proteins cited; added tags and fusions are not shown. Residues count along the entry.
UniProt P08581, residues 25-1390: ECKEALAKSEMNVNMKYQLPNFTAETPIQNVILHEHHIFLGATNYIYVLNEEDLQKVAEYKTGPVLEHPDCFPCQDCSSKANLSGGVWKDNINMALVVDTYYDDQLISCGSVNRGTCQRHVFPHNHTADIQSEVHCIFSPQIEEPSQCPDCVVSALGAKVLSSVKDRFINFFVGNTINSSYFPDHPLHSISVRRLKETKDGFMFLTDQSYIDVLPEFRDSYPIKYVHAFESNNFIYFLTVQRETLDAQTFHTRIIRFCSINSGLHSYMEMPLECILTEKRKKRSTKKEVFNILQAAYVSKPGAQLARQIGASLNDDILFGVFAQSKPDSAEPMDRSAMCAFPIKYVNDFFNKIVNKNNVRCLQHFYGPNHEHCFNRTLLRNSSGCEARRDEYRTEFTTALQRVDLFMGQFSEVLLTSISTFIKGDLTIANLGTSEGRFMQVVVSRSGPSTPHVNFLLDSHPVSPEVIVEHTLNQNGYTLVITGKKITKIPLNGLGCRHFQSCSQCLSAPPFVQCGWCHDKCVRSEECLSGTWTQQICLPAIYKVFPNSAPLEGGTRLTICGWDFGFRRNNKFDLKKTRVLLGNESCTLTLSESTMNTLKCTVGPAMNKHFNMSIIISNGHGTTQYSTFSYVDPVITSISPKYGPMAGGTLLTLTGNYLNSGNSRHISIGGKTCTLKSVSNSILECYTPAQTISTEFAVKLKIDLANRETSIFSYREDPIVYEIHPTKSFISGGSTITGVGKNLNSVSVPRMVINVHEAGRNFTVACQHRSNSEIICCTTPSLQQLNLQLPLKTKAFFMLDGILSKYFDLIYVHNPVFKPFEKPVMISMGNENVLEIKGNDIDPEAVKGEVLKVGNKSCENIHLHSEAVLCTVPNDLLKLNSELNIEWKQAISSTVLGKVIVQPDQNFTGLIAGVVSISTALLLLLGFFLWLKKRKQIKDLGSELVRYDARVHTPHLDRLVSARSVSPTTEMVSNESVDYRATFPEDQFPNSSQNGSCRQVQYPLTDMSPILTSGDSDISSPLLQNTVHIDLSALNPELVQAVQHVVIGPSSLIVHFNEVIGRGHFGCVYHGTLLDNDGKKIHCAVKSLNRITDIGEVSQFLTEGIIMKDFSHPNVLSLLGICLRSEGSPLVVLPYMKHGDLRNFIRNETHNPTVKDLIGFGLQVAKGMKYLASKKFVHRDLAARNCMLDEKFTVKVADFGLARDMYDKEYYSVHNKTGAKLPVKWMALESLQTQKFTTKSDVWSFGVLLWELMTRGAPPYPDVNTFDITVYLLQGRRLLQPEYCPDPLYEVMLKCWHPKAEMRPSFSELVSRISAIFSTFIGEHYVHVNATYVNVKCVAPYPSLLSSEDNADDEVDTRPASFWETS
UniProt Q04912, residues 25-1400: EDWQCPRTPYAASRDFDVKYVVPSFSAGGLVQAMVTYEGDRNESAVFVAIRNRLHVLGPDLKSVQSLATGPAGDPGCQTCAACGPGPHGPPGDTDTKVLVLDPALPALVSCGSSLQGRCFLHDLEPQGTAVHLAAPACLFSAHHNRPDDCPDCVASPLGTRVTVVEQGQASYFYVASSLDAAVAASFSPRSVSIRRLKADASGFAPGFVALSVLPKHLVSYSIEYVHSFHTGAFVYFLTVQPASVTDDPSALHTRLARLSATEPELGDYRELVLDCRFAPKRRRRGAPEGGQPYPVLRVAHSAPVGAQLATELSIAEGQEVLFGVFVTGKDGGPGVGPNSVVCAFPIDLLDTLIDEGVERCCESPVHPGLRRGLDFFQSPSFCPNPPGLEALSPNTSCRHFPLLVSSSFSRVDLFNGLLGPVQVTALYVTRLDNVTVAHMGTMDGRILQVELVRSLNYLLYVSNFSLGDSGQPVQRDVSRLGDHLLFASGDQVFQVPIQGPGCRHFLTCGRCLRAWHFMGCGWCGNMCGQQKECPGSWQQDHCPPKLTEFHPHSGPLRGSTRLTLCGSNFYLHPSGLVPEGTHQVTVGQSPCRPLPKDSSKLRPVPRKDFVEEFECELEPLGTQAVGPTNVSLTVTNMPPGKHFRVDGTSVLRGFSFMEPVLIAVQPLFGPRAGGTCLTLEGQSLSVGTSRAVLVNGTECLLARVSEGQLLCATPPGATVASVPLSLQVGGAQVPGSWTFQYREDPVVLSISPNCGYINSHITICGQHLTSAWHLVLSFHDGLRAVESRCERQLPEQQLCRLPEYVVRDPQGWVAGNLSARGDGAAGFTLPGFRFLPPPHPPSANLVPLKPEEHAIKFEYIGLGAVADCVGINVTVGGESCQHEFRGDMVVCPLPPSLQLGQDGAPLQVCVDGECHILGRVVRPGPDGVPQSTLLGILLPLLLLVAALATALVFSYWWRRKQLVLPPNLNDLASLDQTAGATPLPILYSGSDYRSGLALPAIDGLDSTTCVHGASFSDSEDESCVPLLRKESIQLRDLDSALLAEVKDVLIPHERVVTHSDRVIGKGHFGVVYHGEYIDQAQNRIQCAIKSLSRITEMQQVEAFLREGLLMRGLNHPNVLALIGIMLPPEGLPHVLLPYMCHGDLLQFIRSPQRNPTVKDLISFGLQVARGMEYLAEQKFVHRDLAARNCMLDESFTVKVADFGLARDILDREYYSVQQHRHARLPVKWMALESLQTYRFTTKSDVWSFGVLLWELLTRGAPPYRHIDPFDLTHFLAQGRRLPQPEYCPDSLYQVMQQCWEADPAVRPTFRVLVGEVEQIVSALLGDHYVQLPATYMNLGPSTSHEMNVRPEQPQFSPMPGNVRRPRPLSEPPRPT

Target: MET (human (endogenous in MKN-45)) (UniProt P08581)
Assay: co-IP; MKN-45 lysate (0.025 M Tris pH 7.4, 0.15 M NaCl, 0.001 M EDTA, 1% NP40, 5% glycerol); 500 ug total protein immunoprecipitated overnight at 4°C with anti-MET antibody, magnetic beads; immunoblotted for RON; irrelevant IgG as negative control

Substance: full-length RON (recepteur d'origine nantais) (from UniProt Q04912 25-1400) (receptor)
- binding: binds
